In brackets after ≈: the same amount, converted by molar mass.
Tested on: Mycobacterium tuberculosis
Assay: Antimycobacterial activity against Mycobacterium tuberculosis H37Ra by Microplate Alamar Blue Assay
Format: functional
How it was run: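 Microplate Alamar Blue assay with MIC as the endpoint; isoniazid and kanamycin sulfate were run as reference drugs.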

NNC(=O)c1ccncc1 [ISONIAZID]
MIC: 0.04 µg/mL (≈ 0.292 µM)

Reference: ChEMBL document CHEMBL1146543, “New antimycobacterial and antimalarial 8,9-secokaurane diterpenes from Croton kongensis” (J Nat Prod, 2003)
